# Library screening results

Mtb growth Cornell: 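Whole-cell assay for inhibitors of Mycobacterium tuberculosis growth, labelled Cornell in the record; the read-out is not stated. The concentration is filed as 10 mM, unlikely as a test dose, so the dose is not known. The record gives no direction; compounds strong in two other growth screens of this library score well above the rest, so higher reads as stronger inhibition. About 53,000 compounds were tested under these conditions; 1.7% (about 900) showed 50% or more at least once.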
Mtb heat-shock: 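Assay on Mycobacterium tuberculosis, filed only as a heat shock assay from Cornell; the read-out is not stated. The concentration is filed as 10 mM, unlikely as a test dose, so the dose is not known. The record gives no direction; compounds that gave an IC50 in retests scored well above the rest, so higher reads as stronger inhibition. About 69,000 compounds were tested under these conditions; 1.4% (about 930) showed 50% or more at least once.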

Values are the deposited “Percent Effect”, in %.
The record does not define 0% and 100%; most values in the screen are far below 50% and negative numbers occur (in some assays of this library far below -100).
The compounds are a random part of those screened.
A dash means the value is not listed here; it may have been measured.

| structure | Mtb growth Cornell | Mtb heat-shock |
|---|---|---|
| `COc1cc(OC)cc(N2CCC(NC(=O)c3ccc[nH]3)CC2)c1` | 36.79% | -16% |
| `Cc1nnn2c1COC(CNCc1ccncc1)C2` (configuration not stated) | 16.35% | -4.33% |
| `CN(Cc1ccc(Cl)s1)C(=O)NCc1nnc2n1CCC2` | 21.95% | -20.84% |
| `O=C(NCC(O)c1ccccc1)Nc1cccs1` (configuration not stated) | 59.31% | -2.242% |
| `NC(=O)CN1CCC2(CC1)C[C@@H](O)[C@H](c1ccccc1)NC2=O` | -49.18% | 23.98% |
| `Cc1ccc(C(N)c2cccc(S(C)(=O)=O)c2)cc1` (configuration not stated) | - | 3.585% |
| `CN(C)C(=O)N1CCC2(CC1)CCN(Cc1ccccn1)C2=O.O=C(O)C(F)(F)F` | - | -5.238% |
| `CN(C)CC(=O)N1CCC2(CCN(Cc3cccc(F)c3)CC2)C1` | 0.8113% | -16.36% |
| `Cn1nc2c(cc1=O)CN(Cc1nc(-c3ccoc3)no1)CC2` | -29.93% | -1.305% |
| `N#Cc1ccc(N2CCCN(CC(=O)N3CCC3)CC2)cc1` | - | -11.12% |
| `CC(C)N(C)Cc1cc(=O)n2c(n1)CN(S(=O)(=O)C1CC1)CCC2.O=C(O)C(F)(F)F` | 9.321% | 3.887% |
| `O=S(=O)(NCCSc1nccn1C1CC1)c1ccccc1` | 8.147% | 0.3203% |
| `CCCNC(=O)c1ccc(-c2ccco2)[nH]c1=O` | 25.68% | 2.71% |
| `CC(=O)NCCCNC(=O)N(C)C(C)Cc1ccc(Cl)cc1` (configuration not stated) | 18.19% | 1.881% |
| `Cc1ccc(OCCC(=O)N2CCOCC2c2ncon2)cc1C` (configuration not stated) | - | -2.886% |
| `CC(C)Cn1ccc2c(NC(=O)c3n[nH]c4c3CCC4)cccc21` | 50.74% | 12.53% |
| `CC(C)(C)OC(=O)NCC(=O)NCc1ccc(Cl)s1` | 15.53% | 22.78% |
| `Cc1ccc(C(C(=O)N2CCN(C(=O)c3ccc[nH]3)CC2)N(C)C)cc1` (configuration not stated) | -11.42% | -14.68% |
| `CC(C)c1cc(C(=O)N2CCN(Cc3ccco3)CC2)n[nH]1` | - | 28.51% |
| `CCN1CC2(CC1=O)CN(Cc1cnn(C)c1)CCN(C(=O)N(C)C)C2.O=C(O)C(F)(F)F` (configuration not stated) | 11.48% | -2.589% |
| `CCc1cnc(NCC(CC)N2CCOCC2)nc1` (configuration not stated) | -5.48% | 41.35% |
| `O=C(O)C(F)(F)F.O=C(O)C(F)(F)F.[H][C@@]12COC[C@@H](CC(=O)N3CCOCC3)[C@]1([H])CN(Cc1ccccn1)C2` | 6.339% | -15.44% |
| `C=C(C)COCCNC(=O)C1CCCN1C(C)=O` (configuration not stated) | -5.6% | 2.006% |
| `COCCN(C)C(=O)NCCc1coc(-c2ccc(C)cc2)n1` | -26.26% | -0.3254% |
| `O=C(O)C(F)(F)F.[H][C@@]12CN(C(=O)C3CCOC3)C[C@]1([H])C(=O)N(CCN(C)C)C2` (some centres not stated) | -24.41% | -8.659% |
| `O=C(CNc1ccc(OCC2CCOCC2)cc1)NCc1ccco1` | 31.46% | -26.51% |
| `COCCNC(=O)C1CN(Cc2csc(C)n2)Cc2ccnn2C1.O=C(O)C(F)(F)F` (configuration not stated) | -5.064% | -2.673% |
| `CCn1ccc(-c2cc(C(=O)O)n3ncc(Cl)c3n2)n1` | 33.15% | 13.4% |
| `COc1ccccc1-c1cc(C(=O)Nc2nc[nH]n2)[nH]n1` | -61.17% | 4.203% |
| `CC1c2ncc(Cn3cncn3)n2CCN1C1CCOCC1.O=C(O)C(F)(F)F` (configuration not stated) | -3.307% | -9.657% |
| `Cn1cc(C2CCCN2CCCn2c(=O)oc3ccccc32)cn1` (configuration not stated) | 11.21% | -2.71% |
| `[H][C@@]12CS(=O)(=O)C[C@]1([H])N(C(=O)c1cccc3cccnc13)CCN2CCC` | - | -19.19% |
| `CC(C)Oc1ncccc1CNC(=O)c1cc(C2CC2)on1` | - | -1.451% |
| `CCn1c(CN2CCCC2)nnc1C1CCN(Cc2ccc(C)o2)CC1` | 24.27% | 2.996% |
| `O=C1CCCN1Cc1ncn2c1CN(C(=O)NC1CCCC1)CCC2` | 18.9% | -28.52% |
| `CCc1ccc(C(=O)N2CC(C(=O)NC(C)C)C3(CCOCC3)C2)cc1` (configuration not stated) | 15.9% | -23.21% |
| `[H][C@@]12CN(C(=O)N(C)C)C[C@]1([H])C(=O)NC21CCN(C(=O)C(C)C)CC1` | - | 8.363% |
| `CS(=O)(=O)CCCSCc1cc(F)cc(Br)c1` | 0.1574% | -6.613% |
| `Cc1cnc(NC(C)Cc2cccnc2)nc1N(C)C` (configuration not stated) | -34.9% | -5.577% |
| `Cc1ccc(C(C)NC(=O)Cc2c(C)nc3cc(=O)[nH]n3c2C)s1` (configuration not stated) | - | 66.66% |
| `CCCC1CN(CCOc2ccccc2)C(=O)c2cccnc2O1` (configuration not stated) | -13.03% | -5.894% |
| `CC(CNS(N)(=O)=O)c1ccc(F)c(F)c1` (configuration not stated) | 7.226% | -0.07277% |
| `Cn1ccnc1CNC(=O)CCc1cccc(F)c1` | 4.283% | -6.383% |
| `COCCN(Cc1cccnc1)S(=O)(=O)c1cccc(F)c1F` | 20.16% | -14.99% |
| `[H][C@@]12CN(C(=O)N(C)C)C[C@]1([H])C(=O)N(C)C21CCN(C(=O)CC(C)C)CC1` | - | 11.29% |
| `[H][C@@]12CN(C(=O)c3cccc(C)n3)C[C@]1([H])OCCN2CCN1CCCC1` | 24.85% | 3.054% |
| `CN1CCC(Cc2noc(-c3cccc(OCC(N)=O)c3)n2)CC1` | -5.969% | -9.132% |
| `CNC(=O)CS(=O)(=O)Cc1coc(-c2cccc(F)c2)n1` | - | -5.251% |
| `O=C(c1ccoc1)N1CCC2(C1)CN(c1nccs1)C2` | 18.35% | -26.03% |
| `CCOCC(=O)N1C[C@@H](NC(C)=O)[C@H](c2ccc(OC)cc2)C1` | 9.292% | -10.68% |
| `Cc1nc(C)n(CC2CCCN(CCC(=O)Nc3cc(C)on3)C2)n1` (configuration not stated) | -4.464% | 6.199% |
| `CCOc1cncc(N2CCCC2c2nnc3n2CCCCC3)n1` (configuration not stated) | 14.34% | 5.191% |
| `Cc1ccc(C(=O)N2CCn3c(COCC4CC4)cnc3C2C)nc1.O=C(O)C(F)(F)F` (configuration not stated) | -1.162% | -9.703% |
| `CN(C)CCN(Cc1cccnc1)C(=O)c1ccn(-c2ccccc2)n1` | 29.61% | 44.15% |
| `CN1CCN(C2CCN(Cc3noc(C4CC4)n3)CC2)C1=O` | 7.609% | -3.468% |
| `O=C(NCCCOCC1CC1)Nc1ccc(F)cc1` | -50.68% | 6.449% |
| `[H][C@]12CC[C@]([H])(CN(C(=O)CCc3n[nH]c4c3CCCC4)C1)N(CC1CC1)C2` | 25.23% | 90.59% |
| `Cc1nc2c(c(NCCCN3CCOCC3)n1)CCN(C)C2` | -34.14% | -12.57% |
| `CCc1cc(C(=O)N2CCCC2c2nc(C)c(CC)c(O)n2)on1` (configuration not stated) | -33.75% | -0.9081% |
| `CCCN(CC(=O)NC)C(=O)c1ccc(-c2ccsc2)nc1C` | 23.81% | -11.58% |
| `Cc1ccnn1-c1ccc(C(=O)N2CCCC(n3ccnc3)C2)cc1` (configuration not stated) | 5.834% | 5.755% |
| `O=C(NCCOc1ccccc1)c1ccc2c(c1)C(=O)NC2=O` | 33.06% | -8.019% |
| `CC1(C)CC(N(Cc2ccccc2)Cc2ncc[nH]2)CC(C)(C)N1.O=C(O)CC(O)(CC(=O)O)C(=O)O` | -11.62% | 2.282% |
| `Cc1cc(C)n(CC2CCCN2C(=O)c2ccc3c(c2)COC3)n1` (configuration not stated) | 3.119% | 13.19% |

Some entries from above, unchanged:

{"structure": "O=C(O)C(F)(F)F.[H][C@@]12CN(C(=O)C3CCOC3)C[C@]1([H])C(=O)N(CCN(C)C)C2", "stereo": "some centres not stated", "Mtb growth Cornell": -24.41, "Mtb heat-shock": -8.659}
{"structure": "CCn1c(CN2CCCC2)nnc1C1CCN(Cc2ccc(C)o2)CC1", "Mtb growth Cornell": 24.27, "Mtb heat-shock": 2.996}
{"structure": "N#Cc1ccc(N2CCCN(CC(=O)N3CCC3)CC2)cc1", "Mtb heat-shock": -11.12}
{"structure": "Cn1nc2c(cc1=O)CN(Cc1nc(-c3ccoc3)no1)CC2", "Mtb growth Cornell": -29.93, "Mtb heat-shock": -1.305}
{"structure": "CC(C)Oc1ncccc1CNC(=O)c1cc(C2CC2)on1", "Mtb heat-shock": -1.451}
{"structure": "CC1c2ncc(Cn3cncn3)n2CCN1C1CCOCC1.O=C(O)C(F)(F)F", "stereo": "configuration not stated", "Mtb growth Cornell": -3.307, "Mtb heat-shock": -9.657}
{"structure": "CC(C)(C)OC(=O)NCC(=O)NCc1ccc(Cl)s1", "Mtb growth Cornell": 15.53, "Mtb heat-shock": 22.78}
{"structure": "CC(=O)NCCCNC(=O)N(C)C(C)Cc1ccc(Cl)cc1", "stereo": "configuration not stated", "Mtb growth Cornell": 18.19, "Mtb heat-shock": 1.881}

From ChEMBL document CHEMBL3988442, “University of Dundee, Small-Polar-MMV Screening Library” (2021).